# Where “and” joins values, the source holds several entries; their conditions need not be identical. Identical values can stand only once. Counter-ions that a name gives are not always drawn. ± gives the standard deviation of the averaged measurements. This is one part of the list. Many values rest on one well or one pass, so single values are uncertain.
# System: RAW 264.7
# Experiment: cell viability (MTT) relative to vehicle control; higher = more viable cells
# Conditions: stimulus: HMGB1 5 ug/ml, 18 h
# [1] = compound concentration: 1 ug/ml
SMILES,cell viability (compound concentration: 3 uM),cell viability [1]
CCCn1c(=O)c2[nH]c(C3CCCC3)nc2n(CCCOC(=O)c2ccc(S(=O)(=O)F)cc2)c1=O,106%,
CC(O)(CS(=O)(=O)c1ccc(F)cc1)C(=O)Nc1ccc(C#N)c(C(F)(F)F)c1 (centres undefined) [Bicalutamide (CDX)],106%,
CC(O)(CS(=O)(=O)c1ccc(F)cc1)C(=O)Nc1ccc(C#N)c(C(F)(F)F)c1 (centres undefined),90.3%,
CC(O)(CS(=O)(=O)c1ccc(F)cc1)C(=O)Nc1ccc(C#N)c(C(F)(F)F)c1 (centres undefined) [Bicalutamide],114 ± 4.1%,
"CN1CCc2cc3c(cc2C1C1OC(=O)c2c1ccc1c2OCO1)OCO3 (single isomer, unassigned; (+)) [(+)-Bicuculline]",,99.8%
CCOC(=O)c1cncn1[C@H](C)c1ccccc1 [Etomidate],81.6%,
CCOC(=O)c1cncn1[C@H](C)c1ccccc1,108% and 93%,
CC[C@@H](CO)NC(=O)[C@@H]1C=C2c3cccc4[nH]cc(c34)C[C@H]2N(C)C1 [Methylergometrine maleate],99.3%,
CC[C@@H](CO)NC(=O)[C@@H]1C=C2c3cccc4[nH]cc(c34)C[C@H]2N(C)C1 [Methylergonovine maleate],104%,
CC[C@@H](CO)NC(=O)[C@@H]1C=C2c3cccc4[nH]cc(c34)C[C@H]2N(C)C1,112%,
CCC1(C2=NCCN2)Cc2ccccc2O1 (centres undefined) [Efaroxan hydrochloride],102%,
CCC1(C2=NCCN2)Cc2ccccc2O1 (centres undefined),103%,
CCC1(C2=NCCN2)Cc2ccccc2O1 (centres undefined) [Efaroxan],106%,
CCOC(=O)c1ncn2c1[C@@H]1CCCN1C(=O)c1cc(OC)ccc1-2,97.5%,
NC(N)=Nc1ccc2[nH]c3c(c2c1)C[C@@]1(O)[C@H]2Cc4ccc(O)c5c4[C@@]1(CCN2CC1CC1)[C@H]3O5 [Guanidinyl-naltrindole di-trifluoroacetate],113%,
Cc1o[nH]c(=O)c1CC(N)C(=O)O (racemic) [(±)-AMPA hydrobromide],109%,
CCCCOC(=O)c1ccccc1C(=O)OCCCC,115%,
"CN1[C@@H]2CC[C@H]1C[C@@H](OC(=O)c1cc(Cl)cc(Cl)c1)C2 [3-Tropanyl-3,5-dichlorobenzoate]",122%,
O=C(O)C(Cl)Cl,95.9%,
CC(C)(C)c1cc(C=C(C#N)C#N)cc(C(C)(C)C)c1O [Tyrphostin A9],51.3%,
O=C(O)c1nn(Cc2ccc(Cl)cc2Cl)c2ccccc12,114%,
O=C(O)c1nn(Cc2ccc(Cl)cc2Cl)c2ccccc12 [Lonidamine],96.3%,
COc1ccc2c(c1OC)C(=O)O[C@@H]2[C@H]1c2cc3c(cc2CCN1C)OCO3,101%,

SMILES,cell viability (compound concentration: 3 uM),cell viability [1]
"COc1ccc2c(c1OC)C(=O)O[C@@H]2[C@H]1c2cc3c(cc2CCN1C)OCO3 [(1R,9S)-(-)-beta-Hydrastine ; Hydrastine]",,95%
Cc1cc(C(C#N)c2ccc(Cl)cc2)c(Cl)cc1NC(=O)c1cc(I)cc(I)c1O (centres undefined) [Closantel],114 ± 7.9%,
C[C@@H]1C[C@@H]([C@H](O)CC2CC(=O)NC(=O)C2)C(=O)[C@@H](C)C1 [Cycloheximide],41.1%,
C[C@@H]1C[C@@H]([C@H](O)CC2CC(=O)NC(=O)C2)C(=O)[C@@H](C)C1,35.3%,
CC(C)(O)[C@@H]1[C@H]2OC(=O)[C@@H]1[C@]1(O)C[C@H]3O[C@]34C(=O)O[C@H]2[C@]14C [Picrotin],,92.7%
NC(Cc1cc(O)c(O)cc1O)C(=O)O (racemic) [6-Hydroxy-DL-DOPA],103%,
O=c1[nH]oc2c1CCNC2 [THIP Hydrochloride],80.6%,
O=c1[nH]oc2c1CCNC2 [THIP hydrochloride],118%,
Cc1nnc2n1-c1ccc(Cl)cc1C(c1ccccc1)=NC2 [Alprazolam],89.8%,
"C[N+]1(C)CCc2cc3c(cc2[C@H]1[C@@H]1OC(=O)c2c1ccc1c2OCO1)OCO3 [(-)-Bicuculline methbromide, 1(S), 9(R)]",103%,
COc1ccc2c(c1O)-c1cccc3c1[C@@H](C2)N(C)CC3 [R(-)-Apocodeine hydrochloride],98.6%,
"C[N+]1(C)[C@@H]2CC(OC(=O)[C@H](CO)c3ccccc3)C[C@H]1[C@@H]1O[C@@H]12 (single isomer, unassigned; (-)) [(-)-Scopolamine methyl nitrate]",125%,
C[N+]1(C)CCOC(O)(c2ccc(-c3ccc(C4(O)C[N+](C)(C)CCO4)cc3)cc2)C1 (centres undefined) [Hemicholinium bromide],101%,
C[N+]1(C)CCOC(O)(c2ccc(-c3ccc(C4(O)C[N+](C)(C)CCO4)cc3)cc2)C1 (centres undefined) [Hemicholinium-3],97.9%,
Nc1ccncc1,111%,
Nc1ccncc1 [4-Aminopyridine],109%,
CN(C)Cc1c[nH]c2ccccc12 [Gramine],,94.6%
CC[C@H](C)[C@H]1O[C@]2(C=C[C@@H]1C)C[C@@H]1C[C@@H](C/C=C(\C)[C@@H](O[C@H]3C[C@H](OC)[C@@H](O[C@H]4C[C@H](OC)[C@@H](O)[C@H](C)O4)[C@H](C)O3)[C@@H](C)/C=C/C=C3\CO[C@@H]4[C@H](O)C(C)=C[C@@H](C(=O)O1)[C@]34O)O2.CO[C@H]1C[C@H](O[C@H]2[C@H](C)O[C@@H](O[C@@H]3/C(C)=C/C[C@@H]4C[C@@H](C[C@]5(C=C[C@H](C)[C@@H](C(C)C)O5)O4)OC(=O)[C@@H]4C=C(C)[C@@H](O)[C@H]5OC/C(=C\C=C\[C@@H]3C)[C@]54O)C[C@@H]2OC)O[C@@H](C)[C@@H]1O [Abamectin],100%,
CC[C@H](C)[C@H]1O[C@]2(C=C[C@@H]1C)C[C@@H]1C[C@@H](C/C=C(\C)[C@@H](O[C@H]3C[C@H](OC)[C@@H](O[C@H]4C[C@H](OC)[C@@H](O)[C@H](C)O4)[C@H](C)O3)[C@@H](C)/C=C/C=C3\CO[C@@H]4[C@H](O)C(C)=C[C@@H](C(=O)O1)[C@]34O)O2.CO[C@H]1C[C@H](O[C@H]2[C@H](C)O[C@@H](O[C@@H]3/C(C)=C/C[C@@H]4C[C@@H](C[C@]5(C=C[C@H](C)[C@@H](C(C)C)O5)O4)OC(=O)[C@@H]4C=C(C)[C@@H](O)[C@H]5OC/C(=C\C=C\[C@@H]3C)[C@]54O)C[C@@H]2OC)O[C@@H](C)[C@@H]1O,101%,
CO[C@H]1CC=C2CCN3CCC4=C(CC(=O)OC4)[C@]23C1 [Dihydro-beta-erythroidine hydrobromide],96.5%,
C[C@]12CCC(=O)C=C1CC[C@@H]1[C@@H]2C(=O)C[C@]2(C)C(=O)CC[C@@H]12 [Adrenosterone],103%,
COc1cc2c(cc1OC)-c1c(OC)c(OC)c(CO)c3c1C(C2)N(C)CC3 (centres undefined),,84.5%
Cc1[nH]c2ccc(O)cc2c1CCN [2-Methyl-5-hydroxytryptamine maleate],114%,

SMILES,cell viability (compound concentration: 3 uM),cell viability [1]
C=CCN1CCc2cccc3c2[C@H]1Cc1ccc(O)c(O)c1-3 [R(-)-N-Allylnorapomorphine hydrobromide],98.2%,
COc1ccc(C(=O)N2CCCC2=O)cc1 [Aniracetam],105 ± 4.8%,
COc1ccc(C(=O)N2CCCC2=O)cc1,110%,
O=C1/C(=C/c2ccccc2)C[C@@]2(O)[C@H]3Cc4ccc(O)c5c4[C@@]2(CCN3CC2CC2)[C@H]1O5 [BNTX maleate salt hydrate],79.3%,
CCCCCCCCCCCCCC(=O)O[C@@H]1[C@@H](C)[C@@]2(O)[C@@H](C=C(CO)C[C@]3(O)C(=O)C(C)=C[C@@H]23)[C@@H]2C(C)(C)[C@]12OC(C)=O,92%,
CCCCCCCCCCCCCC(=O)O[C@@H]1[C@@H](C)[C@@]2(O)[C@@H](C=C(CO)C[C@]3(O)C(=O)C(C)=C[C@@H]23)[C@@H]2C(C)(C)[C@]12OC(C)=O [Phorbol 12-myristate 13-acetate],101%,
"CC(C)(C)[C@]1(O)CC2OC(=O)CC23C(=O)OC2OC(=O)[C@H](O)C231 (single isomer, unassigned; (-)) [(-)-Bilobalide]",,91.1%
CCS(=O)(=O)Nc1cccc(C(=C2CCCCC2)c2cnc[nH]2)c1,100%,
CC[C@@]1(O)C[C@H](O)c2c(cc3c(c2O)C(=O)c2c(O)ccc(O)c2C3=O)[C@H]1C(=O)OC,84.3%,
O=C(O)CCCc1ccc(N(CCCl)CCCl)cc1,103 ± 8.6%,
O=C(O)CCCc1ccc(N(CCCl)CCCl)cc1 [Chlorambucil],87.3 ± 4.2%,
NCC(O)c1cc(O)c(O)cc1F (centres undefined) [6-Fluoronorepinephrine hydrochloride],91.9%,
CC[C@@H](C(N)=O)N1CCCC1=O,85.4%,
CC[C@@H](C(N)=O)N1CCCC1=O [Levetiracetam],107 ± 6.2%,
C/C=C1/CN2CC[C@]34C(=C(C=O)[C@H]1C[C@H]23)Nc1ccccc14,,104%
CC(N)Cc1c[nH]c2ccc(OCc3cccs3)cc12 (centres undefined),99.2%,
COc1ccc2[nH]c3c(c2c1)CCN=C3C [Methoxy-6-harmalan],102%,
NCCc1c[nH]c2c(OCc3ccccc3)cccc12 [7-Benzyloxytryptamine],,102%
CC(C)[C@@]1(NC(=O)[C@@H]2C[C@@H]3c4cccc5[nH]cc(c45)C[C@H]3N(C)C2)O[C@@]2(O)[C@@H]3CCCN3C(=O)[C@H](Cc3ccccc3)N2C1=O [Dihydroergocristine],111%,
CN1CCC(c2c[nH]c3ccc(O)cc23)CC1,88%,
O=C1C=C2C=C[C@@H]3C[C@@]2(O1)[C@H]1CCCCN31 [Securinine],,94.3%
O=C1C=C2C=C[C@@H]3C[C@@]2(O1)[C@H]1CCCCN31,109%,
CN1CCC(c2ccc(F)cc2)C(COc2ccc3c(c2)OCO3)C1 (centres undefined),97.4%,

# — the supplement of paper PMC3682954
